# Results: article PMC7862700
# The list shows a part of the results. Construct or isoform of the protein are uncertain.
# Molecular target: T1, ELF2 (UniProt Q15723)
# T1 sequence: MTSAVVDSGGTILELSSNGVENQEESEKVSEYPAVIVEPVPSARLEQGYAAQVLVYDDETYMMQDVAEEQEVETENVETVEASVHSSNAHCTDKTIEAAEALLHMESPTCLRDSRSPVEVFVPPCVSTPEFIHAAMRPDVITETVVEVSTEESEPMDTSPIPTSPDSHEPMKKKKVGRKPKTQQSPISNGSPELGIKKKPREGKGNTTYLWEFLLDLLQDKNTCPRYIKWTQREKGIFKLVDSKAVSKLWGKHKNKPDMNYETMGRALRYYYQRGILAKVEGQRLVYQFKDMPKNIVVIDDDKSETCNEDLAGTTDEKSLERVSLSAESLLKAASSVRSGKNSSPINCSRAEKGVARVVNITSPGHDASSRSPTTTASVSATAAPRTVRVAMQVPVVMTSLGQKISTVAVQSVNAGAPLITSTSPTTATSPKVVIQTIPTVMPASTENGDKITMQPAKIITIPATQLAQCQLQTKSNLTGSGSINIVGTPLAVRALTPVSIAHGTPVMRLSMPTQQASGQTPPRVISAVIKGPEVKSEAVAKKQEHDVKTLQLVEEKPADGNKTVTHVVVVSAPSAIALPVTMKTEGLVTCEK
# Assay: DAPPL (digital affinity profiling via proximity ligation, sequencing)
# Conditions: 10 mM Tris-HCl pH 7.5, 50 mM NaCl, 1 mM DTT, 4% glycerol, room temperature, 30 min; GST-TFs on glutathione beads, 16-mer random dsDNA library, 0.1% …; high values mean tight binding; double strand, one strand shown; scale: fold enrichment (6-mer frequency, TF over GST control)
row,Sequence,binding signal
1,TGATGC,1.49
2,CCAAGA,0.875
3,CATTTT,1.17
4,CCCTTC,1.58
5,AGAGAA,0.812
6,TTCTAC,1.51
7,CCGAGC,1.05
8,TAAAGC,1.04
9,TTCGCG,1.1
10,TCCTGC,1.8
11,AGATAT,1.02
12,GATTTG,1.13
13,TAAACT,1.16
14,CCACTA,1.03
15,CGAATC,0.989
16,ATATTT,1.64
17,TTATCG,1.18
18,TAAGAG,0.854
19,GCCTGG,0.934
20,CCTAGC,1.11

row,Sequence,binding signal
1,TTTCTA,1.33
2,TTCCCA,1.33
3,TACACT,1.54
4,TCCAAA,1.14
5,AGGGTT,0.923
6,TTCTCT,1.31
7,AGACTT,1.11
8,GCGTCT,1.05
9,ATATAA,1.2
10,AGCGAT,1.01
11,CCAACT,1.19
12,ACGTAC,1.12
13,TTCTAT,1.33
14,CTTCTT,1.7
15,TCTTGG,1.25
16,CACAAG,1.1
17,ATCCGG,3.37
18,TCCTAA,1.45
19,CTAGCG,1.09
20,AAGATT,1.17

# Part of the list above, reformatted:
row | Sequence | binding signal
5 | AGAGAA | 0.812
6 | TTCTAC | 1.51
